Experimental data: PubChem BioAssay AID1347131 (National Center for Advancing Translational Sciences (NCATS), 2019)
The whole screen tested about 410,000 compounds, of which about 2,000 (0.49%) were called active. This list was built around the results that the source calls inconclusive (neither active nor inactive); the mix of calls is not that of the screen. Calls come from the whole dose curve; tested in HEK293 reporter line. Where the call is inconclusive, the potency comes from a doubtful curve fit.
Potency is the fitted concentration of half-maximal effect.

Test: qHTS Assay for Foot and Mouth Disease Virus Antivirals: Primary Screen against the MLPCN compound library; note: nearly all actives have a fitted effect of over 55% in size
Conditions: FMDV antiviral cell-based qHTS; series mostly up to 57.9 µM
In the case of `Cc1ccc(-n2nc3c(N4CCC(C(=O)NCCc5cccs5)CC4)nnc(C)c3c2C)cc1`, the Potency is reported as inconclusive: 25.1 µM [inhibitor, partial curve, poor fit]. For `CC(C(=O)NCC1CCCCC1)N1CCN(S(=O)(=O)c2cccs2)CC1` (stereo not given), the Potency was inconclusive: 35.5 µM [inhibitor, partial curve, poor fit]. With `Cn1nnnc1Sc1ncnc2scc(-c3cccc(Br)c3)c12` the Potency was inconclusive: 17.8 µM [inhibitor, single point]. With `O=C(NC(=S)Nc1ccc(C(=O)N2CCOCC2)cc1)c1ccc([N+](=O)[O-])cc1` the Potency was inconclusive: 4.47 µM [inhibitor, full curve]. With `Cc1ccc(C(=O)Nc2ncc3c(Cl)cccc3n2)cc1` the Potency was inconclusive: 10 µM [inhibitor, partial curve, poor fit]. In the case of `COc1ccc(CCNc2oc(COc3ccccc3Cl)nc2C#N)cc1OC`, the Potency is reported as inconclusive: 20 µM [inhibitor, partial curve, poor fit]. With `COc1cc(NC(=O)Cn2nc(C(F)(F)F)c(Br)c2C)cc([N+](=O)[O-])c1` the Potency was inconclusive: 39.8 µM [inhibitor, partial curve, poor fit]. For `c1ccc2c(NC3C4CC5CC(C4)CC3C5)nc(N3CCOCC3)nc2c1` (stereo not given), the Potency was inconclusive: 25.1 µM [inhibitor, partial curve, poor fit]. In the case of `CC1CCC(C(C)C)C(OC(=O)Cn2c(-c3ccccc3)[n+](C)c3ccccc32)C1` (stereo not given), the Potency is reported as inconclusive: 12.6 µM [inhibitor, partial curve, poor fit]. With `CC(=O)c1c(C)[nH]c(C(=O)OCC(=O)Nc2ccccc2Cl)c1C` the Potency was inconclusive: 17.8 µM [inhibitor, partial curve, poor fit]. In the case of `COC(=O)c1ccc(COC(=O)c2[nH]c(C)c(C(C)=O)c2C)o1`, the Potency is reported as inconclusive: 12.6 µM [inhibitor, partial curve, poor fit]. With `CCCCN(CC)C(=O)C1CCCN(c2ncnc3c2nc2n3CCCCC2)C1` (stereo not given) the Potency was inconclusive: 7.08 µM [inhibitor, partial curve]. With `COc1ccccc1N1CCN(C(=O)CCCn2c(=S)[nH]c3ccccc3c2=O)CC1` the Potency was inconclusive: 25.1 µM [inhibitor, partial curve, poor fit]. In the case of `CCOCc1c(C(=O)Nc2ccc3nc(N4CCOCC4)sc3c2)oc2ccccc12`, the Potency is reported as inconclusive: 20 µM [inhibitor, partial curve, poor fit]. In the case of `COc1cc(CC(=O)O)ccc1OCc1ccccc1`, the Potency is reported as inconclusive: 3.55 µM [inhibitor, full curve].
